Measured values from the supplement of paper PMC11060735.
Several values for one entry are separate records, joined by “and”; a condition that tells them apart may be missing. Equal values may be shown once. Where a name gives a salt, the structure may show the parent alone. ± gives the standard deviation of the averaged measurements. Over roughly 1,800 compounds, “GFP- (p16Ink4a-) cell count relative to negative-control wells” has its median near 0.99; the lowest 2% begin near 0.5. This is one part of the list. Square brackets hold non-standard residues; d marks the D form. Peptide text beside a SMILES is read from it. pGlu = O=C1CC[C@@H](C(=O)O)N1; Thz = O=C(O)[C@@H]1CSCN1

Each molecule was assayed on mouse p16Ink4a+/- lung fibroblasts (INKBRITE, bleomycin-injured) (assay: GFP- (p16Ink4a-) cell count relative to negative-control wells (fold of vehicle); higher = more p16Ink4a- cells surviving). Settings: 1 µM; 3 days.

Compound	GFP-
CC(C(=O)O)c1cccc(Oc2ccccc2)c1 (stereo not given) [Fenoprofen]	0.886
Cc1cccc(-c2[nH]c(C(C)(C)C)nc2-c2ccc3nccnc3c2)n1	1.27
Oc1ccc(Nc2nc(-c3ccc(Cl)cc3)cs2)cc1	0.947
COc1cc2c(cc1OC)[C@@H]1Cc3ccc(OC)c(OC)c3CN1CC2 [Rotundine]	1.01
N=C(N)NC(=O)c1nc(Cl)c(N)nc1N [Amiloride]	0.97
CCCc1ncc(C[n+]2ccccc2C)c(N)n1 [Amprolium]	1.02
CCOc1ccc(Cc2cc([C@@H]3O[C@H](CO)[C@@H](O)[C@H](O)[C@H]3O)ccc2Cl)cc1 [Dapagliflozin]	1.12
O=C1CC[C@@H](C(=O)N2CSC[C@H]2C(=O)O)N1 [Pidotimod] ([pGlu]-[Thz]-OH)	1.17
CC(=O)OCC(=O)NCCCOc1cccc(CN2CCCCC2)c1 [Roxatidine acetate]	0.987
OC[C@@H](O)[C@@H](O)[C@H](O)[C@H](O)CO [Mannitol]	1.13
Nc1nc(N)c2nc(-c3cccc(O)c3)cnc2n1	0.953
CN1CCN(C(c2ccccc2)c2ccccc2)CC1 [Cyclizine]	0.973
CCCCOc1c(C(=O)c2c(F)cc(C)cc2F)cnc2[nH]ncc12	0.973
FC(F)c1nc2ccccc2n1-c1nc(N2CCOCC2)nc(N2CCOCC2)n1	0.711
C[C@]1(O)C[C@@H](c2nc(-c3ccc4ccc(-c5ccccc5)nc4c3)c3c(N)nccn32)C1 [Linsitinib]	0.931
OC1(c2ccc(Cl)c(C(F)(F)F)c2)CCN(CCCC(c2ccc(F)cc2)c2ccc(F)cc2)CC1 [Penfluridol]	0.901
COc1cc2c(cc1OC)CC(=O)N(CCCN(C)C[C@H]1Cc3cc(OC)c(OC)cc31)CC2 [Ivabradine]	1.14
O=C(NOCC1CC1)c1ccc(F)c(F)c1Nc1ccc(I)cc1Cl	0.839
CC[C@]1(O)C[C@@H]2CN(CCc3c([nH]c4ccccc34)[C@@](C(=O)OC)(c3cc4c(cc3OC)N(C=O)[C@@H]3C45CCN4CC=C[C@](CC)([C@H]45)[C@@H](OC(C)=O)[C@]3(O)C(=O)OC)C2)C1 (stereo not given in full) [Vincristine]	0.699
NC(=O)C1CCCc2c1[nH]c1ccc(Cl)cc21 (stereo not given) [Selisistat]	0.942 ± 0.17
Cc1[nH]c(/C=C2\C(=O)Nc3ccc(S(=O)(=O)Cc4c(Cl)cccc4Cl)cc32)c(C)c1C(=O)N1CCC[C@@H]1CN1CCCC1	0.404
COc1cc2ncnc(Sc3nnc(C)s3)c2cc1OC	0.908
NCCc1c[nH]cn1 [Histamine]	1.02
CCN(CC)Cc1ccc2cc(COC(=O)Nc3ccc(C(=O)NO)cc3)ccc2c1 [Givinostat]	0.572 ± 0.012
COc1cc(C(C)=O)ccc1OCCCN1CCC(c2noc3cc(F)ccc23)CC1 [Iloperidone]	0.929

Ordered by length of the SMILES (high to low): 11 of the compounds above.
Compound	GFP-
CC[C@]1(O)C[C@@H]2CN(CCc3c([nH]c4ccccc34)[C@@](C(=O)OC)(c3cc4c(cc3OC)N(C=O)[C@@H]3C45CCN4CC=C[C@](CC)([C@H]45)[C@@H](OC(C)=O)[C@]3(O)C(=O)OC)C2)C1 (stereo not given in full) [Vincristine]	0.699
Cc1[nH]c(/C=C2\C(=O)Nc3ccc(S(=O)(=O)Cc4c(Cl)cccc4Cl)cc32)c(C)c1C(=O)N1CCC[C@@H]1CN1CCCC1	0.404
CCOc1ccc(Cc2cc([C@@H]3O[C@H](CO)[C@@H](O)[C@H](O)[C@H]3O)ccc2Cl)cc1 [Dapagliflozin]	1.12
C[C@]1(O)C[C@@H](c2nc(-c3ccc4ccc(-c5ccccc5)nc4c3)c3c(N)nccn32)C1 [Linsitinib]	0.931
OC1(c2ccc(Cl)c(C(F)(F)F)c2)CCN(CCCC(c2ccc(F)cc2)c2ccc(F)cc2)CC1 [Penfluridol]	0.901
CCN(CC)Cc1ccc2cc(COC(=O)Nc3ccc(C(=O)NO)cc3)ccc2c1 [Givinostat]	0.572 ± 0.012
FC(F)c1nc2ccccc2n1-c1nc(N2CCOCC2)nc(N2CCOCC2)n1	0.711
O=C1CC[C@@H](C(=O)N2CSC[C@H]2C(=O)O)N1 [Pidotimod] ([pGlu]-[Thz]-OH)	1.17
Oc1ccc(Nc2nc(-c3ccc(Cl)cc3)cs2)cc1	0.947
COc1cc2ncnc(Sc3nnc(C)s3)c2cc1OC	0.908
N=C(N)NC(=O)c1nc(Cl)c(N)nc1N [Amiloride]	0.97

The listing continues.

Compound	GFP-
CN1CCC(=C2c3ccccc3CCc3sccc32)CC1 [Pizotyline Malate]	0.902
OC(Cn1cncn1)(Cn1cncn1)c1ccc(F)cc1F [Fluconazole]	1.22
CCN(CC)CCNC(=O)c1c(C)[nH]c(/C=C2\C(=O)Nc3ccc(F)cc32)c1C [Sunitinib]	0.755
O=C(c1ccc(OCCN2CCCCC2)cc1)c1c(-c2ccc(O)cc2)sc2cc(O)ccc12 [Raloxifene]	0.809
CO/C(O)=C1/C(C)=NC(C)=C(C(=O)OC(C)C)C1c1cccc2nonc12 (stereo not given) [Isradipine]	1.06
COc1ccc(F)c(F)c1C(=O)c1cnc(NC2CCN(S(C)(=O)=O)CC2)nc1N	0.777
Cc1c(C(=O)Nc2ccc(N3CCC(N4CCOCC4)CC3)c(C#N)c2)cnn1-c1ccc(Cl)cc1	0.605
CN(C)c1ccc(C(=C2C=CC(=[N+](C)C)C=C2)c2ccc(N(C)C)cc2)cc1 [Gentian Violet]	0.494
N[C@@H](CC(=O)N1CCn2c(nnc2C(F)(F)F)C1)Cc1cc(F)c(F)cc1F [Sitagliptin]	1.16
OCCN(CCO)c1nc(N2CCCCC2)c2nc(N(CCO)CCO)nc(N3CCCCC3)c2n1 [Dipyridamole]	0.942
CC(=O)SCC(Cc1ccccc1)C(=O)NCC(=O)OCc1ccccc1 (stereo not given) [Racecadotril]	0.972
O=C(c1ccc(OCCCc2c[nH]cn2)cc1)C1CC1 [Ciproxifan]	1.01
CC1(C)O[C@H]2CC(=O)OC[C@]23[C@H]2CC[C@@]4(C)[C@H](c5ccoc5)OC(=O)[C@H]5O[C@]54[C@]2(C)C(=O)C[C@@H]13 [Limonin]	0.967
C[C@@H]1C[C@H]2[C@@H]3C[C@H](F)C4=CC(=O)C=C[C@]4(C)[C@@]3(F)[C@@H](O)C[C@]2(C)[C@@]1(O)C(=O)CO [Flumethasone]	1.01
CC(C)C(=O)Nc1ccc([N+](=O)[O-])c(C(F)(F)F)c1 [Flutamide]	1.16
Cc1ccc(C(=O)N(CCCN)[C@@H](c2oc3cc(Cl)ccc3c(=O)c2Cc2ccccc2)C(C)C)cc1	0.595
COc1cc2nc(N3CCN(C(=O)c4ccco4)CC3)nc(N)c2cc1OC [Prazosin]	1.13
COc1cc(CCc2cc(NC(=O)c3ccc(N4C[C@@H](C)N[C@@H](C)C4)cc3)[nH]n2)cc(OC)c1	1.04
CNC(=O)c1cc(Oc2ccc(NC(=O)Nc3ccc(Cl)c(C(F)(F)F)c3)cc2)ccn1 [Sorafenib]	1.12 and 1.1
COc1c(O)cc2c(c1O)[C@@H]1O[C@H](CO)[C@@H](O)[C@H](O)[C@H]1OC2=O [Bergenin]	0.998
CCCCOc1ccc(C(=O)Nc2ccc(F)cc2F)cc1	0.879
C[C@]12C=CC(=O)N[C@@H]1CC[C@@H]1[C@@H]2CC[C@]2(C)[C@@H](C(=O)Nc3cc(C(F)(F)F)ccc3C(F)(F)F)CC[C@@H]12 [Dutasteride]	0.977
CCOC(=O)c1c(CSc2ccccc2)n(C)c2cc(Br)c(O)c(CN(C)C)c12 [Arbidol HCl]	0.933
CC(C)CN(C[C@@H](O)[C@H](Cc1ccccc1)NC(=O)O[C@H]1CCOC1)S(=O)(=O)c1ccc(N)cc1 [Amprenavir]	1.01
COCCO/C(O)=C1\C(C)=NC(C)=C(C(=O)OC/C=C/c2ccccc2)C1c1cccc([N+](=O)[O-])c1 (stereo not given) [Cilnidipine]	0.955
